Our source for the binding values is paper PMC10171440.

Chains of the proteins cited; added tags and fusions are not shown.
UniProt Q69YN4: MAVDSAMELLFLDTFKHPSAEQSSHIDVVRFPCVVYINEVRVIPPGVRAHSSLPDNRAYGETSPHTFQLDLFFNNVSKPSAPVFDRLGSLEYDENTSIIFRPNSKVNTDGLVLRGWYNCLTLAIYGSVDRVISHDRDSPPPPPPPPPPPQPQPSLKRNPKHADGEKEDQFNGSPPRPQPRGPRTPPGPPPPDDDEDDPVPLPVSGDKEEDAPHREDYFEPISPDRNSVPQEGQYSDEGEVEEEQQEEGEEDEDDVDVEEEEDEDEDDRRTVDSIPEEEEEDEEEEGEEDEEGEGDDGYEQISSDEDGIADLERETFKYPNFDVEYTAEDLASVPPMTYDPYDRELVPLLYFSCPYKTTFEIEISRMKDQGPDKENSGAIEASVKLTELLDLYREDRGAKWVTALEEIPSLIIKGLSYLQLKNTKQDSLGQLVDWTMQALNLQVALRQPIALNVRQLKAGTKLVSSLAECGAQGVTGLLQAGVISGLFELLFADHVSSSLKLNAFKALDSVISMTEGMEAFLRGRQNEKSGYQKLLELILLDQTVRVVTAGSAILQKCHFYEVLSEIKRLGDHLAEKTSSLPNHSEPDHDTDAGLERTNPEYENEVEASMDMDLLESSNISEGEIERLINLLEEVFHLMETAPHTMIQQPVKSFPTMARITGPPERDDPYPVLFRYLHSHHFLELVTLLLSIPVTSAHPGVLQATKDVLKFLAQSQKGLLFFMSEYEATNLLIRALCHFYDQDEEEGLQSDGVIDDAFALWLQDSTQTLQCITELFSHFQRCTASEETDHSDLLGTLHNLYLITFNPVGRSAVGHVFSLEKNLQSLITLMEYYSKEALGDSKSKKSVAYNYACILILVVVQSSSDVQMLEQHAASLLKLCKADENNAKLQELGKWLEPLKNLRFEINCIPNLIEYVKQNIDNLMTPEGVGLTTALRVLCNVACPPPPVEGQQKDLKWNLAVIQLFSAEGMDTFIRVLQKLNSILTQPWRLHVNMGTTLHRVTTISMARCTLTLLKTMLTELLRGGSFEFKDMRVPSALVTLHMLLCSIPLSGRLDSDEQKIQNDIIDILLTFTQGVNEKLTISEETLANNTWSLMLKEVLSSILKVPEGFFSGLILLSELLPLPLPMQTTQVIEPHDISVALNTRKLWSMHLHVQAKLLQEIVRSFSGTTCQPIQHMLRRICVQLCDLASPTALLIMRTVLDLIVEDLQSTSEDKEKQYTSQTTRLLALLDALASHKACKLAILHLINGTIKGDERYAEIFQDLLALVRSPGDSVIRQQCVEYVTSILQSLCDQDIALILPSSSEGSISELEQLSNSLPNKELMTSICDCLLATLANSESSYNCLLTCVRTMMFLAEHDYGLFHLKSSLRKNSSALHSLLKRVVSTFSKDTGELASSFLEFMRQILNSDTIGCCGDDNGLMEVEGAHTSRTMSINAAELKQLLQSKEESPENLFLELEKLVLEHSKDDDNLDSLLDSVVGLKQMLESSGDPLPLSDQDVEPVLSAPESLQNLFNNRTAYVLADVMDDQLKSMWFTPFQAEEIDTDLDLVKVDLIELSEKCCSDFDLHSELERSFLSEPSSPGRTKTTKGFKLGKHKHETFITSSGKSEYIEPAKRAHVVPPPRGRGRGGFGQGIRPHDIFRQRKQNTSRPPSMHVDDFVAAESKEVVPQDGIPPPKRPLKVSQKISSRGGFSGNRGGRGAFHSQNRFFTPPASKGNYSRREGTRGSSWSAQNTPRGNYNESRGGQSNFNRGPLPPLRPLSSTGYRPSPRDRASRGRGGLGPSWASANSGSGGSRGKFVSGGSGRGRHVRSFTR

The experiment addresses T1, ubiquitin-specific peptidases 29 (USP29) (human (endogenous in CRC cells)) (UniProt Q9HBJ7).
T1 sequence: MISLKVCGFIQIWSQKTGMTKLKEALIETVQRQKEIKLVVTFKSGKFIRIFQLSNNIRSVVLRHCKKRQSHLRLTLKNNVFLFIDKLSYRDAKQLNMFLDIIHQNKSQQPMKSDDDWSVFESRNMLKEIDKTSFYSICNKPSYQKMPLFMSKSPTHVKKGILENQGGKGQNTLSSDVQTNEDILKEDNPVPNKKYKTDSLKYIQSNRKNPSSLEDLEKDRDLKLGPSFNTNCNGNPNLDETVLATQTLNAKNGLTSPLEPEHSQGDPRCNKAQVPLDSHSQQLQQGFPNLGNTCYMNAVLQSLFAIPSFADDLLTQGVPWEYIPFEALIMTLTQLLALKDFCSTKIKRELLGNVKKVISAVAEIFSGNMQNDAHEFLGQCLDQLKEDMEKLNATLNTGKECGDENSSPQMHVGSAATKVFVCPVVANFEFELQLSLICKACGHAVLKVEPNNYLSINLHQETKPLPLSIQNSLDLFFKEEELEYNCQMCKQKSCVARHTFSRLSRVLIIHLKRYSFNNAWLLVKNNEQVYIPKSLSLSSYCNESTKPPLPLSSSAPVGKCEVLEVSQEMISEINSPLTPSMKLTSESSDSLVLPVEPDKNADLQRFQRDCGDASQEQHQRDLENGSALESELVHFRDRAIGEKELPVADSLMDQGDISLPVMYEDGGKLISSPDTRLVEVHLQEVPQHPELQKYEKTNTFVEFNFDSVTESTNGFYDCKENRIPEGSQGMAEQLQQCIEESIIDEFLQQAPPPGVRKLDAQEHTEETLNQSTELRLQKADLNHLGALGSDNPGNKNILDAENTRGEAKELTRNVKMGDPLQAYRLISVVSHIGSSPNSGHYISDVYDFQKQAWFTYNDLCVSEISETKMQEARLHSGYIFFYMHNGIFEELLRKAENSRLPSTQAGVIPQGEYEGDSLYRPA
Nature of the experiment: co-IP; total protein of CRC cells in RIPA buffer; supernatant incubated with protein A+G agarose beads for 4 h at 4 C with USP29 antibody (IgG antibody as control); precipitate analysed by Western blotting. (In general: Immunoblotting shows a protein as a band on a membrane.)

No constants are given. Whether binding was seen depends on the method and setting. In cells and extracts the contact can be indirect. Some entries that bind do so weakly or less than the wild type.

Turning to “Vir-like m6A methyltransferase associated (VIRMA/KIAA1429) (from UniProt Q69YN4 1-1812)”, the binding entry is “binds”.
